These are yes or no findings as the source states them, for the method shown. Binding seen in cells or lysates may run through a third protein. A result given as binding can be weak or reduced; the word gives no strength. Where a sequence is shown, tags or fusion partners need not be part of it.
Assays:
[1] = target: T1, SpoIIE-3XFLAG (full length FLAG tagged SpoIIE) (B. subtilis) (UniProt P37475); experiment: co-IP; extracts of sporulating B. subtilis cells (2.5 hours after resuspension), membrane proteins solubilized with 2% digitonin, anti-FLAG M2 magnetic beads 1 hour at 4°C, washes with 0.1% digitonin; Western blot
T1 sequence: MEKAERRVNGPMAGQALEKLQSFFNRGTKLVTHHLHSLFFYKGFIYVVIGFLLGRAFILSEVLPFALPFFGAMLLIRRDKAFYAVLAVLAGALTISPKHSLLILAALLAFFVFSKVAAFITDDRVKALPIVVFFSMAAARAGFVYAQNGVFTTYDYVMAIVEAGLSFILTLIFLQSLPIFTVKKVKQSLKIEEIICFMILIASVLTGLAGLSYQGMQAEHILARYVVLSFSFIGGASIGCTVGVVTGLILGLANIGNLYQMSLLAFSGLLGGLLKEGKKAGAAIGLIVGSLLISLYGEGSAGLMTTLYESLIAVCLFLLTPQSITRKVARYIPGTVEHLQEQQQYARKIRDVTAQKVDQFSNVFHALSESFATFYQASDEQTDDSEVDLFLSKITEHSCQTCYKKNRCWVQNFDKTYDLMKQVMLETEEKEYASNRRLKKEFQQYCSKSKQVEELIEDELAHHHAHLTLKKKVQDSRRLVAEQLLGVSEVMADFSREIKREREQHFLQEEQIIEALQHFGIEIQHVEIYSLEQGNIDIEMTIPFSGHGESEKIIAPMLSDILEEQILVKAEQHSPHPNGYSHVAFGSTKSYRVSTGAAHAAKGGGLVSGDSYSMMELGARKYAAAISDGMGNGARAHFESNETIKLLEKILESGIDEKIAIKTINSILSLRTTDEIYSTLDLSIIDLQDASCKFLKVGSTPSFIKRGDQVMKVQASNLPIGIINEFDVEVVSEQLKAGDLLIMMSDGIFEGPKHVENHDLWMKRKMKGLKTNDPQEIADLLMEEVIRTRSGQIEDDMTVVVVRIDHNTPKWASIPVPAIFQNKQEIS

[2] = target: T2, His6-tagged cyt-RodZ (cytosolic part of RodZ) (B. subtilis); experiment: pull-down; His6-cyt-RodZ and S-tagged cyt-SpoIIE co-expressed in E. coli BL21 (DE3) (pETDuet); clarified lysate in 20 mM Tris-HCl pH 8.0, 150 mM NaCl on Ni Sepharose HP column, imidazole step elution; Western blot with anti-His-tag and anti-S-tag
T2 sequence: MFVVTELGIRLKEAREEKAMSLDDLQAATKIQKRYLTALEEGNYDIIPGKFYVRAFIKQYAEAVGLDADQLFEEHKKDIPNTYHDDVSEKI

Row | binding [1] | binding [2] | Substance
1 | binds |  | CFP-RodZ (from UniProt A0AAT9J3Y0)
2 |  | binds | S-tagged cyt-SpoIIE (whole cytosolic part of SpoIIE, regions II+III) (B. subtilis) (domain or fragment)

— paper PMC4945075
